Our source for the survivor count and T/C values is PubChem BioAssay AID258 (DTP/NCI, 2004).

The list is a part of this screen's results and no random one: it gathers tests that were run many times, whatever their T/C, doses with no T/C, and many T/C values between a quarter and a half above the control. Further doses and runs are listed elsewhere. T/C is the treated group as % of the vehicle group. Some entries give survivors of the animals treated and no T/C: the source holds a T/C of zero for them, seemingly a mark for toxic or unscored doses. Some survivor counts are full or nearly so, which does not show that the dose was tolerated: survival well below the control is almost never listed, so the zero probably covers shortened survival too. Counts of survivors are from the toxicity check (mostly the fifth day) where no day follows; animals may have died later. Schedules are NCI's codes, read here as Q, the interval in days (D) or hours (H), X, the number of doses. Some molecules as drawn cover several salts, stereoisomers or complexes of the source; a dose is that of the sample tested. Some schedules carry Z or #; the key to these is not given. For survival time, the PubChem record calls one and a half times the control and up active, and a quarter to a half above the control has no call in these data; cut-offs in other NCI protocols can differ. Marks such as (2×) count equal records among those shown. Some entries hold several experiments; the results are listed from low to high. Some T/C values are followed by the survivors on the day toxicity was checked, most often the fifth; where none is given, no animal had died by that day. Starred links: 1 amine or outer side, 2 acyl side, 3 side chain; linkers in the order of their positions; H or OH if unused. Positions of bridges follow the written chain, without caps; N, C: chain ends. Non-standard residues stand in square brackets, D forms with d. Residues, ends and D or L forms follow the SMILES beside them. Chains are numbered I, II in the order given. Actinocin(9to1) = Cc1c2oc3c(C)ccc(C(=O)[*:1])c3nc-2c(C(=O)[*:2])c(N)c1=O; aThr = C[C@H](O)[C@H](N)C(=O)O; NMeV = CN[C@H](C(=O)O)C(C)C; Sar = CNCC(=O)O

This test deals with CD2F1 mice, L1210 leukemia sc, survival T/C. In words: NCI In Vivo Anticancer Drug Screen. Data for tumor model L1210 Leukemia (subcutaneous) in CD2F1 (CDF1) mice. The conditions noted are these: T/C endpoint: median survival time, higher T/C = longer survival. In outline: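 Compound given to mice bearing transplantable tumor. Survival or tumor size then recorded. Result expressed relative to vehicle-dosed control group as T/C.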

Setting [1] is: dose: 30.0 mg/kg/injection, schedule: Q01DX009 (ip), vehicle: saline.

Turning to `Cc1c2oc3c(C)ccc(C(=O)N[C@@H]4C(=O)N[C@H](C(C)C)C(=O)N5CCC[C@H]5C(=O)N(C)CC(=O)N(C)[C@@H](C(C)C)C(=O)O[C@H]4C)c3nc-2c(C(=O)N[C@@H]2C(=O)N[C@H](C(C)C)C(=O)N3CCC[C@H]3C(=O)N(C)CC(=O)N(C)[C@@H](C(C)C)C(=O)O[C@H]2C)c(N)c1=O` (I: [aThr][dV]P[Sar][NMeV] / II: [aThr][dV]P[Sar][NMeV]; ester I:1-I:C, II:1-II:C; linker I:N-II:N via Actinocin(9to1)), the survivor count by setting is: (dose: 0.08 mg/kg/injection, schedule: Q01DX Z (sc), vehicle: saline) 3 of 8; (dose: 0.14 mg/kg/injection, schedule: Q01DX Z (sc), vehicle: saline) 4 of 8; (dose: 0.23 mg/kg/injection, schedule: Q01DX Z (sc), vehicle: saline) 2 of 8; (dose: 0.39 mg/kg/injection, schedule: Q01DX Z (sc), vehicle: saline) 0 of 8; (dose: 0.65 mg/kg/injection, schedule: Q01DX Z (sc), vehicle: saline) 2 of 8; (dose: 1.08 mg/kg/injection, schedule: Q01DX Z (sc), vehicle: saline) 3 of 8. Also, the survivor count was 5 of 8 (dose: 1.8 mg/kg/injection, schedule: Q07DX Z (sc), vehicle: other); 6 of 10 (dose: 12.0 micrograms/kg/injection, schedule: Q01DX009 (sc), vehicle: saline); 4 of 10 (dose: 25.0 micrograms/kg/injection, schedule: Q01DX009 (sc), vehicle: saline); 9 of 10 (dose: 400.0 micrograms/kg/injection, schedule: Q01DX009 (ip), vehicle: saline). Also, the T/C (dose: 0.14 mg/kg/injection, schedule: Q01DX Z (sc), vehicle: other) is 137 % of control; the T/C (dose: 0.15 mg/kg/injection, schedule: Q01DX Z (sc), vehicle: other) was 137 % of control; the T/C (dose: 0.23 mg/kg/injection, schedule: Q01DX Z (sc), vehicle: other) was 137 % of control; the T/C (dose: 0.25 mg/kg/injection, schedule: Q01DX Z (sc), vehicle: other) is 125 % of control; the T/C (dose: 0.39 mg/kg/injection, schedule: Q01DX Z (sc), vehicle: other) was 125 % of control; the T/C (dose: 0.39 mg/kg/injection, schedule: Q07DX Z (sc), vehicle: other) was 125 % of control. Further, the T/C was 125 and 137 % of control (dose: 0.65 mg/kg/injection, schedule: Q07DX Z (sc), vehicle: other); 125 and 137 % of control (dose: 1.08 mg/kg/injection, schedule: Q07DX Z (sc), vehicle: other); 135 % of control [7 of 8 alive] (dose: 1.8 mg/kg/injection, schedule: Q01DX Z (sc), vehicle: saline).

In the case of `CCN(CC)CCNc1ccc(C)c2sc3ccccc3c(=O)c12`, under “dose: 50.0 mg/kg/injection, schedule: Q01DX009 (ip), vehicle: saline”, the T/C was 129 % of control. In addition, under “dose: 400.0 mg/kg/injection, schedule: Q01DX009 (ip), vehicle: saline”, the survivor count is on record as 2 of 10.

Consider `COc1ccc2[nH]c3ccc4cc[n+](CCN5CCC(C6CCN(CC[n+]7ccc8ccc9[nH]c%10ccc(OC)cc%10c9c8c7)CC6)CC5)cc4c3c2c1`, for which the T/C is 144 % of control (dose: 6.25 mg/kg/injection, schedule: Q01DX009 (ip), vehicle: Klucel (hydroxypropylcellulose) (HPC)); 125 % of control (dose: 19.2 mg/kg/injection, schedule: Q01DX009 (ip), vehicle: water); 126 % of control [5 of 6 alive] (dose: 50.0 mg/kg/injection, schedule: Q01DX009 (ip), vehicle: Klucel (hydroxypropylcellulose) (HPC)). In addition, the survivor count (dose: 53.3 mg/kg/injection, schedule: Q01DX009 (ip), vehicle: water) is given as 6 of 6; the survivor count (dose: 100.0 mg/kg/injection, schedule: Q01DX009 (ip), vehicle: Klucel (hydroxypropylcellulose) (HPC)) was 0 of 6; the survivor count (dose: 200.0 mg/kg/injection, schedule: Q01DX009 (ip), vehicle: Klucel (hydroxypropylcellulose) (HPC)) is 0 of 6.

As for `COC12C(COC(N)=O)C3=C(C(=O)C(C)=C(N)C3=O)N1CC1C2N1C` (configuration not stated), the T/C (dose: 8.0 mg/kg/injection, schedule: Q01DX009 (ip), vehicle: saline) was 128 % of control. For the same compound, the survivor count reads like this: under setting [1], 10 of 10; (dose: 32.0 mg/kg/injection, schedule: Q01DX009 (ip), vehicle: saline) 10 of 10; (dose: 60.0 mg/kg/injection, schedule: Q01DX009 (ip), vehicle: saline) 6 of 10.

As for `NC(=S)N/N=C/c1ccc(O)cn1`, the T/C is 107 and 109 % of control (dose: 14.0 mg/kg/injection, schedule: Q03HX032 (sc), vehicle: other, evaluated on day 7); 105 and 111 % of control (dose: 14.0 mg/kg/injection, schedule: Q03HX032 (sc), vehicle: other, evaluated on day 38); 124 and 153 % of control (dose: 23.0 mg/kg/injection, schedule: Q03HX032 (sc), vehicle: other, evaluated on day 7); 122 and 155 % of control (dose: 23.0 mg/kg/injection, schedule: Q03HX032 (sc), vehicle: other, evaluated on day 38); 187 and 195 % of control (dose: 39.0 mg/kg/injection, schedule: Q03HX032 (sc), vehicle: other, evaluated on day 7); 188 and 200 % of control (dose: 39.0 mg/kg/injection, schedule: Q03HX032 (sc), vehicle: other, evaluated on day 38). Further, the T/C by setting is: (dose: 65.0 mg/kg/injection, schedule: Q03HX032 (sc), vehicle: other, evaluated on day 7) 168 and 169 % of control; (dose: 65.0 mg/kg/injection, schedule: Q03HX032 (sc), vehicle: other, evaluated on day 38) 166 % of control (2×).

Take `CCn1cnc2c(SC)ncnc21`: the survivor count (dose: 300.0 mg/kg/injection, schedule: Q01DX Z (sc), vehicle: methylcellulose (MC)) is 3 of 10; the survivor count (dose: 500.0 mg/kg/injection, schedule: Q01DX Z (sc), vehicle: methylcellulose (MC)) is on record as 0 of 10; the survivor count (dose: 833.0 mg/kg/injection, schedule: Q01DX Z (sc), vehicle: methylcellulose (MC)) is 0 of 10.

For `O=c1n(CC2CO2)c(=O)n(CC2CO2)c(=O)n1CC1CO1` (configuration not stated), the T/C was 126 and 132 % of control under setting [1]; 143 % of control (dose: 40.0 mg/kg/injection, schedule: Q01DX009 (ip), vehicle: saline); 147 % of control [6 of 8 alive] (dose: 60.0 mg/kg/injection, schedule: Q04DX003 (ip), vehicle: saline).

As for `CNCCN=c1ccc2c3c1c(O)c1c(O)ccc(=O)c1c3[nH]n2CCNCCO`, the T/C (dose: 1.8 mg/kg/injection, schedule: Q01DX009 (ip), vehicle: water) is 140 % of control.

Turning to `COc1cc([C@@H]2c3cc4c(c(O)c3C[C@H]3COC(=O)[C@@H]32)OCO4)cc(OC)c1OC`, the survivor count is, setting by setting: (dose: 5.0 mg/kg/injection, schedule: Q01DX Z (sc), vehicle: methylcellulose (MC)) 0 of 10; (dose: 8.4 mg/kg/injection, schedule: Q01DX Z (sc), vehicle: methylcellulose (MC)) 0 of 10; (dose: 14.0 mg/kg/injection, schedule: Q01DX Z (sc), vehicle: methylcellulose (MC)) 2 of 10; (dose: 23.0 mg/kg/injection, schedule: Q01DX Z (sc), vehicle: methylcellulose (MC)) 0 of 10; (dose: 39.0 mg/kg/injection, schedule: Q01DX Z (sc), vehicle: methylcellulose (MC)) 3 of 10; (dose: 65.0 mg/kg/injection, schedule: Q01DX Z (sc), vehicle: methylcellulose (MC)) 3 of 10. Further, for the setting “dose: 108.0 mg/kg/injection, schedule: Q01DX Z (sc), vehicle: methylcellulose (MC)”, the survivor count is given as 2 of 10.

As for `Nc1nc2c(ncn2C2CC(O)C(CO)O2)c(=O)[nH]1` (configuration not stated), the survivor count reads like this: (dose: 63.0 mg/kg/injection, schedule: Q01DX Z (sc), vehicle: water) 4 of 8; (dose: 125.0 mg/kg/injection, schedule: Q01DX Z (sc), vehicle: water) 2 of 8; (dose: 250.0 mg/kg/injection, schedule: Q01DX Z (sc), vehicle: water) 2 of 8; (dose: 500.0 mg/kg/injection, schedule: Q01DX Z (sc), vehicle: water) 3 of 8.
